Results are given in words; binding and its absence hold for the method and conditions named. In cells and extracts the contact can be indirect. Some entries that bind do so weakly or less than the wild type.
Tests used:
[1] = biological target: T1, CCDC25 (human (endogenous in MIA PaCa-2)) (UniProt Q86WR0); experiment: co-IP
T1 sequence: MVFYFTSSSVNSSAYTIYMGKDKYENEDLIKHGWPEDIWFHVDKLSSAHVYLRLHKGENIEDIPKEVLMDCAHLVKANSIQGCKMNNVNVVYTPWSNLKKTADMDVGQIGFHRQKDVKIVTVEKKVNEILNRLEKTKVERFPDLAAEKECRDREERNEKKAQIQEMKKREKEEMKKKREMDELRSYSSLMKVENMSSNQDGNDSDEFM

The chains behind the UniProt entries cited, without tags or fusion partners.
UniProt P05556: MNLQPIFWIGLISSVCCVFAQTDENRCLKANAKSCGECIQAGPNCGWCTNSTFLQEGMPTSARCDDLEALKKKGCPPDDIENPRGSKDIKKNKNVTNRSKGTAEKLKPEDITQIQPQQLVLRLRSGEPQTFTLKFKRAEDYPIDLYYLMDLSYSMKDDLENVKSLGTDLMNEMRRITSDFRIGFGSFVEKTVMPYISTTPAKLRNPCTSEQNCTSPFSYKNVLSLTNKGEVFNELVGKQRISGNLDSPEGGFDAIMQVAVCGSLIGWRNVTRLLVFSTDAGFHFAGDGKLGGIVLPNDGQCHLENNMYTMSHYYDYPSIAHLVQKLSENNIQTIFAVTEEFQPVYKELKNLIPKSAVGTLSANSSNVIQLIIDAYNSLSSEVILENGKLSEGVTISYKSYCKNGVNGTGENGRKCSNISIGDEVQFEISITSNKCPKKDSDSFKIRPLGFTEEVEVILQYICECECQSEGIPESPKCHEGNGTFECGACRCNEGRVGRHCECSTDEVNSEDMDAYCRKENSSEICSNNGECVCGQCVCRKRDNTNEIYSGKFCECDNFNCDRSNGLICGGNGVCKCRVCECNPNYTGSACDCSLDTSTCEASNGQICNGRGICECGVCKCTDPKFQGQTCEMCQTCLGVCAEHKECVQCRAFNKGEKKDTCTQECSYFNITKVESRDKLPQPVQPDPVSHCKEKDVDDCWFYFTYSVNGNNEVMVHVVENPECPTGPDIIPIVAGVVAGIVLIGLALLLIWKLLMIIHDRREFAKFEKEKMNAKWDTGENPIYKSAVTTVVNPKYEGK
UniProt Q13418: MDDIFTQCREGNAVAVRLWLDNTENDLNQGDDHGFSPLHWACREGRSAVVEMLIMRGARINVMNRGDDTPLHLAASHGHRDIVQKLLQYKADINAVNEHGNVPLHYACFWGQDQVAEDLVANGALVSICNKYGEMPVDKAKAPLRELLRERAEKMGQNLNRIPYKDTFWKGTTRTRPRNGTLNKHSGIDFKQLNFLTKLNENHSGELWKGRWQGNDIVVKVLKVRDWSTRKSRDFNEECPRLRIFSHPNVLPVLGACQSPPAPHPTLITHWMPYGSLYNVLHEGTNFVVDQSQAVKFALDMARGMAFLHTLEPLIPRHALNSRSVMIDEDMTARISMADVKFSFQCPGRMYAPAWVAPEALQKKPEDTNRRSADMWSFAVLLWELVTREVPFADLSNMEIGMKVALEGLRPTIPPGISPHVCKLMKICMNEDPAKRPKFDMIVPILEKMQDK

[2] = biological target: beta1 integrin (ITGB1) (human (endogenous in MIA PaCa-2)) (UniProt P05556); experiment: co-IP

Integrin-Linked Kinase (ILK) (from UniProt Q13418 1-452)
binding [1]: binds

B1: CCDC25 (receptor, UniProt Q86WR0 1-208)
chain: T1 sequence
binding [2]: binds

— publication doi:10.1101/2024.11.15.622336
